Test system: MCF7 (human breast cancer)
Assay: MTT cytotoxicity assay on MCF7 cells
Type: cell-based
Settings: 48 hours, read-out: 50% inhibitory concentration
Description: The human cell lines used were K562 (human erythroleukemia) MCF7 (human breast cancer) and A375 (human melanoma). The murine cell lines used were Mel Rel (murine melanoma) and 4T1 (murine mammary cancer). […] The cell line 4T1 was also maintained with 1 mM of sodium pyruvate (Eurobio, Toulouse, FR). For the assays on normal cells, human mononucleocytes from the venous peripheral blood of healthy donors (PBMC) were obtained, and were separated by centrifugation using a Ficoll-Hypaque density gradient (GE Healthcare Bio-Sciences AB, Bjorkgatan, Uppsala, Sweden). The cytotoxic effect of the combination of the invention on tumor cells and normal cells was evaluated by direct microscopic observation and via assays with MTT (Sigma, Saint Louis Mo., USA). […] The formazan crystals were dissolved with dimethyl sulfoxide (DMSO) and the optical density was measured at 540 nm in a Multiskan MCC/340 machine (Labsystems, Thermo Fisher Scientific, Waltham, USA). The cytotoxic effect of FA-CS was evaluated with MTT on various tumoral cell lines. The […] value on the various cell lines was calculated using the Minitab software. […]

COc1cccc2c1C(=O)c1c(O)c3c(c(O)c1C2=O)C[C@@](O)(C(=O)CO)C[C@@H]3O[C@H]1C[C@H](N)[C@H](O)[C@H](C)O1 [Doxorubicin]
IC50: 5.3 ± 0.5 µg/mL

Source: patent US9931355B2, “Combination of compounds derived from gallic acid for the treatment of cancer” (PONTIFICLA UNIVERSIDAD JAVERIANA, priority 2012, dated 2018)
